{"source": "patent US20230226184A1", "about": "“IMPROVEMENTS IN ULTRASOUND-MEDIATED THERAPY” (Bracco Suisse SA, priority 2020, published 2023)", "key": {"[1]": {"system": "NMU tumor", "assay": "Tumour perfusion during US-MV treatment followed by contrast echography (Example 6)", "type": "in vivo, rat", "protocol": "Pre-pubescent rats (female, Sprague Dawley) received a single intra-peritoneal injection of 50 mg/kg of NMU (N-nitroso-N-methylurea, Sigma, Switzerland). […] Serial bolus injections of gas-filled microvesicles (as specified in Table 5) were performed and the tumor was submitted to therapeutic insonation (frequency, acoustic pressure and pulse characteristics as specified in the subsequent examples). The perfusion of tumor during treatment was assessed as described in Example 5. All parameters relative to microvesicles and ultrasound treatment were fixed (see Table 5). The therapeutic insonation parameters were chosen in accordance with the previous studies, to obtain a vascular permeabilization in the NMU tumor."}, "[2]": {"system": "mouse DA3 tumor model", "assay": "Tumour perfusion during US-MV treatment followed by contrast echography (Example 5)", "type": "in vivo", "protocol": "The mouse DA3 tumor model was used in these studies. The US treatment was delivered by the Verasonic® system (probe P4-2). The probe was placed at 5 cm from the tumor (spaced by a water tank, filled with degassed water). […] The perfusion of each tumor was followed by the echographic signal of microvesicles (Verasonic® system). The signal was recorded and post-analysed with Vuebox® software. […] The expression “replenishment time” indicates the time required to supply the area under the ultrasound beam with the vessel with fresh gas-filled microvesicles, after the substantial destruction of MV caused by each US pulse. The expression “MV destruction” corresponds to the loss of integrity or structure of MV caused by acoustic activation of MV by US. This can be provoked for example by MV collapse or gas dissolution and monitored by acoustic signal follow up. All parameters relative to microvesicles and ultrasound treatment were fixed (see Table 4). The therapeutic insonation parameters were chosen in accordance with the previous studies, to obtain a vascular permeabilization in the DA3 tumor."}, "[3]": {"system": "mesenteric rat microcirculation", "assay": "Vasospasm inhibition by vasospasm inhibitor pre-treatment before US-MV (Examples 4, 7)", "type": "in vivo", "settings": "Example 7, conditions of Table 6 (P02, US 400 kPa, 5 min)", "protocol": "The model used for these experiments was the mesenteric rat microcirculation. Briefly, anesthetized animals were prepared to allow the visualization of an intestinal loop. The injections were made in the tail vein.\nRats were placed under the inverted microscope (Olympus® X2) equipped with a X20 objectives (mag final: 200). A numeric camera, driven by an open source software, acquired and recorded 30 s video at each time points required, in accordance with the protocol.\nUS treatment was delivered by an experimental single element transducer (unfocused, plane, 1.5 MHz). Table 1 reports the tested US parameters, including the pulse scheme, the acoustic pressure and the duration of US application, for each protocol. The transducer was focus on the optical objective and placed to respect a working distance of 5 cm.\nImage sequences were acquired, before, during and after treatment. Additional acquisitions could be performed every 5 min until 40 min after the initiation of US exposure to monitor the vasospasm resolution.\nThe model used for these experiments was the mesenteric rat microcirculation. The model and animal preparation were described in example 2.\nThis study aimed at the evaluation of the inhibition of vasospasm induced by a vasospasm inhibitor compound, in particular the dihydropiridine calcium channel blocker nimodipine. […]"}, "[4]": {"system": "NMU rat tumor model", "assay": "Extravasation of Cy5.5-labeled 150 kDa-dextran in tumour after US-MV treatment (Example 1)", "type": "in vivo", "settings": "VI pre-treatment + US-MV versus conditions without VI or US", "protocol": "The model used was the NMU rat tumor model. Pre-pubescent rats (female, Sprague Dawley) received a single intra-peritoneal injection of 50 mg/kg of NMU (N-nitroso-N-methylurea, Sigma, Switzerland). Rats developing tumours were enrolled in protocol. In the NMU model, animals can develop several tumours allowing to have tumors receiving microvesicles and ultrasound for therapy; and tumors without ultrasound insonation (called untreated) in the same animal. The rats were anesthetized and placed on dorsal decubitus. A catheter was placed in the tail vein to inject drugs and microvesicles. The US treatment transducer was placed at 5 cm of the tumor (spaced by a water tank). […] To evaluate the efficiency of molecular extravasation, a 150 kDa-dextran labeled with Cy©5.5 fluorophore was injected just before therapeutic treatment with ultrasounds and microvesicles. […] Tumors were then harvested from sacrificed animals; the fluorescence was quantified on image acquired ex vivo (Fluobeam® 700). The fluorescence was quantified by ImageJ software."}}, "note": "At least one compound was matched to its structure with a doubt left."}
{"smiles": "COCCOC(=O)C1=C(C)NC(C)=C(C(=O)OC(C)C)C1c1cccc([N+](=O)[O-])c1", "note": "(stereo not drawn) [Nimodipine]", "values": [{"measurement": "Decrease of perfusion in tumor", "setting": "[1]; Nimodipine 1.4 mg/kg iv 10 min before, P02 1.2E+09 MV/kg, 4 boluses, US 600 kPa, 1 ms ON/15 s OFF, 20 min", "value": "0/2 tumors"}, {"measurement": "tumor perfusion across treatment", "setting": "[1]; nimodipine 1.4 mg/kg, 10 min before US + P02", "value": "stable tumor perfusion"}, {"measurement": "Decrease of perfusion in tumor", "setting": "[2]; Nimodipine 1.4 mg/kg iv 10 min before, P01 1.3E+09 MV/kg, 4 boluses, US 800 kPa, 1 ms ON/15 s OFF, 25 min", "value": "0/4"}, {"measurement": "quantification of tumoral perfusion during treatment with US+MV (FIG. 1)", "setting": "[2]; VI pre-treatment (Nimodipine 1.4 mg/kg IV) versus without VI pre-treatment", "value": "improved tumour perfusion"}, {"measurement": "ability to inhibit the vasospasm", "setting": "[3]", "value": "good ability to inhibit the vasospasm"}, {"measurement": "increase of extravasation of the Cy5.5 dye in the tumour tissue compared with the other conditions", "setting": "[4]", "value": "almost two times"}]}
